Results on one molecule are retold here after publication PMC10087552, “Non‐canonical binding of the Chaetomium thermophilum PolD4 N‐terminal PIP motif to PCNA involves Q‐pocket and compact 2‐fork plug interactions but no 3_10 helix” (The Febs Journal, 2022).

The target of this assay is Chaetomium thermophilum PCNA (proliferating cell nuclear antigen) (Chaetomium thermophilum). Nature of the assay: crystal structure; co-crystallisation of Ct PCNA with the peptide; 0.2 M calcium acetate, 0.1 M sodium cacodylate pH 6.5, 36% PEG 300; 2.45 Å, space group P1, two trimers in the asymmetric unit; both purified.

These are yes or no findings as the source states them, for the method shown. Binding can be weak; no strength is given.

KHQSTLNFKHRVTKP [Ct PolD4 PIP peptide (residues 21-35 of Chaetomium thermophilum PolD4)]: the binding entry is recorded as “binds”.
